From US8329656B2, “Use of a PDE5 inhibitor for treating and preventing hypopigmentary disorders” (Switch Biotech AG, priority 2004, dated 2012)
Some results were stated once for a whole list of compounds, not compound by compound.

Test system: human melanoma cell line (Mel-Ho)
Assay: Melanocyte dendrite outgrowth assay
Type: cell-based
Conditions: treated 24 hours, media-only control = 1
Text: A possibility to test the effect of a compound on melanocyte function as a measure for pigmentation, the melanocyte dendrite outgrowth assay can be performed. Vitiligo melanocytes for example have only stubby dendrites. Increasing dendricity as a prerequisite for the transfer of the melanosomes from melanocytes to the surrounding keratinocytes rescues this defect. For this assay, cells from a human melanoma cell line (Mel-Ho) were obtained from DSMZ (Deutsche Sammlung für Mikroorganismen and Zellkulturen) and were cultured according to the protocol provided by DSMZ. In short, after thawing the melanocytes were cultured in T-75 flasks in melanocyte culture media (provided by the manufacturer) until they reach 70-80% confluency. The melanocytes were then trypsinized, transferred into 5-10 new T-75 flasks, and grown again to same confluency as described above. After this expansion step the melanocytes were immediately used for the Melanocyte Dendrite Outgrowth Assay or were frozen for later use. For the assay, the melanocytes were seeded in 24 well plates at a density of 1-5×10^4 cells/well. After 24 hours, the melanocytes were treated with 100 μM IBMX (Sigma-Aldrich) or different concentrations of Sildenafil and Tadalafil for 24 hours. […] In addition, melanocyte dendricity was scored by 3 blinded individuals after 24 hours. […]

Row | Compound | melanocyte dendricity score (10 μM, score 1 (no dendrites) to 4 (many long and branched dendrites), 3 blinded individuals) | melanocyte dendricity score (100 μM, positive control, score 1 to 4)
1 | CCCc1nn(C)c2c(=O)[nH]c(-c3cc(S(=O)(=O)N4CCN(C)CC4)ccc3OCC)nc12 [Sildenafil, 5-[2-Ethoxy-5-(4-methyl-1-piperazinylsulfonyl)phenyl]-1-methyl-3-n-propyl-1,6-dihydro-7H-pyrazolo[4,3-d]pyrimidin-7-one] | > 3 | 
2 | CC(C)Cn1c(=O)n(C)c(=O)c2[nH]cnc21 [IBMX, 3-isobutyl-1-methylxanthin] |  | > 3
